Binding data for one substance are collected here from article PMC8350375.

Sequences of proteins named here, by UniProt entry; tags and fusion partners are left off. A change or cut given only in a name is not applied to a line headed by its entry.
UniProt P62815: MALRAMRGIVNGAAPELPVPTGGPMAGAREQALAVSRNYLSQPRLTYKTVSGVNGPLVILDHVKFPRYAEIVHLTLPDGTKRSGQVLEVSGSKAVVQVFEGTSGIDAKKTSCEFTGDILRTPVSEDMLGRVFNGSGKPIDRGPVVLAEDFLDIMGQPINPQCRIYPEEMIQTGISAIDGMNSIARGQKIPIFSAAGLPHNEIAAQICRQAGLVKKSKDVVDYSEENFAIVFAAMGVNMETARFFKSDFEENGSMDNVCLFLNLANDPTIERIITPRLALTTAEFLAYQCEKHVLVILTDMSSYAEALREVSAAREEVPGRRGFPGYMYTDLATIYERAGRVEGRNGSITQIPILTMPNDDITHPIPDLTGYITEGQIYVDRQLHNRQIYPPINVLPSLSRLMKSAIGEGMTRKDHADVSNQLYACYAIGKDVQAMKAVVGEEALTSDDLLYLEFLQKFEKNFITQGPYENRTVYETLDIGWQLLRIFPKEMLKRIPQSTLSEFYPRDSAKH
UniProt Q2I6B1: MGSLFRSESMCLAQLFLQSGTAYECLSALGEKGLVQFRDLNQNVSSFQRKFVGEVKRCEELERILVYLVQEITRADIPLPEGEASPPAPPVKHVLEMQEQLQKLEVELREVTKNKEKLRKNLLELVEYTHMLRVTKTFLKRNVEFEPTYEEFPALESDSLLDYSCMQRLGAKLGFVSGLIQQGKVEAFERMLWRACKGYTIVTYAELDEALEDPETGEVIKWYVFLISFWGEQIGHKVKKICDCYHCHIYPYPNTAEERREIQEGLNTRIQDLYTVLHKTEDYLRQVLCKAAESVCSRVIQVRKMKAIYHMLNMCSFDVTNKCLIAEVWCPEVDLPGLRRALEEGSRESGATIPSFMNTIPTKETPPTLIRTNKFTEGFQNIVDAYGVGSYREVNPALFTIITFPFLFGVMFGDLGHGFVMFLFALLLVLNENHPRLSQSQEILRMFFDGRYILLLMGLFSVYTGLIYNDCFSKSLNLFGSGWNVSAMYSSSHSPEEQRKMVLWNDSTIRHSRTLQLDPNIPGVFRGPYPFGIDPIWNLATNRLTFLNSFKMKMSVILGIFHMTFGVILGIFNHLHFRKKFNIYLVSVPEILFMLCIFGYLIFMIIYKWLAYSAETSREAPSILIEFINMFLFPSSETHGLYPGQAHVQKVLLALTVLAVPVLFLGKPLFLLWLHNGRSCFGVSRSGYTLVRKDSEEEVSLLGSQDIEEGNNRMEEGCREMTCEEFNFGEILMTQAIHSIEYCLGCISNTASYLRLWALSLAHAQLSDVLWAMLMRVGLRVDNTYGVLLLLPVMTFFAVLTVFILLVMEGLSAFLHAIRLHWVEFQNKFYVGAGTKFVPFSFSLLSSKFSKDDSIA

No constants are given. Whether binding was seen depends on the method and setting. Binding seen in cells or lysates may run through a third protein. Binding calls can cover weak binding; strength is not graded here.

This test concerns the target v-ATPase B2 subunit (V1 subcomplex), rat heart (rat (endogenous in heart)) (UniProt P62815). Briefly: co-IP; endogenous proteins in rat heart lysates; IP against V1-B2, V0-d1 or mTOR, western blot for mTOR, V0-a2, V1-B2, V0-d1; rats on LFD, HFD or HFD/H-KLR (HFD decreased, H-KLR restored the co-IP).

For the substance “v-ATPase a2 subunit (V0 subcomplex), rat heart (from UniProt Q2I6B1)”, the binding entry was “binds”.
